The text below walks through data of publication PMC3502335.

For at least one entry, the source does not settle the construct or the ends of the probe. Where cells or extracts were used, other partners may take part. For some assays here: The comparison behind a weaker result is the experiment's own reference, which may not be listed here. Protein sequences can lack the tags named with them. For some assays here: At least one verdict rests on a figure or table, not on a statement of the authors.

For data set [1], the target named is T1, Stat5b WT (rat) (UniProt P52632).
T1 sequence (looked up, limits assumed): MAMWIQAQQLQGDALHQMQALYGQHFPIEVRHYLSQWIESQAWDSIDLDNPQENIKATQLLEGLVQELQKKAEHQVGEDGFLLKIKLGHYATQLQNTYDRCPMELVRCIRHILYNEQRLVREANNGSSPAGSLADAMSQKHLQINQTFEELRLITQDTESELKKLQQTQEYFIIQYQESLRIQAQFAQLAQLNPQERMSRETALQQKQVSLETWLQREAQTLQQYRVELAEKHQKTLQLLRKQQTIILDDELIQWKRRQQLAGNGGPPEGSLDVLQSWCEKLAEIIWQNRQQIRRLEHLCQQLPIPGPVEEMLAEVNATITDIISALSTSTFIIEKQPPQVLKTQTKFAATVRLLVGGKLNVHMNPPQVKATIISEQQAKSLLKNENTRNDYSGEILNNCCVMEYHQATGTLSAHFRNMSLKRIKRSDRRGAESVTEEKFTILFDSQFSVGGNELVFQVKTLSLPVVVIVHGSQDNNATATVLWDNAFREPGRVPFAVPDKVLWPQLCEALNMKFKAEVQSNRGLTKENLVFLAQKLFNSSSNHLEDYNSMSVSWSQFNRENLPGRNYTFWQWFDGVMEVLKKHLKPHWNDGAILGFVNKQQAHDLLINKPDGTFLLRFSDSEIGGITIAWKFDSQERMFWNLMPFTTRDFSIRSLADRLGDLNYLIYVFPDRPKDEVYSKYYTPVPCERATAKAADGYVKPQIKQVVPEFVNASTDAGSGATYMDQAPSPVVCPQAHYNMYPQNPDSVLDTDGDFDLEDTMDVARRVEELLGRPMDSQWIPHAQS
Put plainly: competition EMSA. The following applies: Cos-7 nuclear extract (1 ug for Kd, 2 ug for competition), 60 min at 4 C, 5% native PAGE in 1x TBE pH 8.3 at 20 C, probe 0.1-15 nM, binding buffer not given (ref 31), protein in a lysate after overexpression, protein details: Flag; for IC50: vs labeled R34, GH-activated, label: 5'-Cy5.5 as probe, unlabeled as competitor.

Data set [2] concerns the target T1, Stat5b WT (rat). The data set can be described thus: EMSA. The following applies: GH-activated; Cos-7 nuclear extract (1 ug for Kd, 2 ug for competition), 60 min at 4 C; 5% native PAGE in 1x TBE pH 8.3 at 20 C; probe 0.1-15 nM; binding buffer not given (ref 31); protein in a lysate after overexpression; protein details: Flag; label: 5'-Cy5.5 as probe, unlabeled as competitor.

The mark [3] stands for this setting: vs labeled R34, IC50 only in figure.

Sequence “GGGCCTTCCTGGAAGAAAG (double strand) [R34]” had an IC50 with Stat5b WT (rat) [1] of 2.7 nM. In the data set with Stat5b WT (rat) [2], this sequence returned a Kd of 6.1 nM.

Turning to “TCATCTTTCAGGGAAATCTAG (double strand) [R53]”, the binding result with Stat5b WT (rat) [1] (setting [3]) is on record as “binds”.

Regarding “CTTCCTTCCTTGAAACTG (double strand) [R13]”, the binding result with Stat5b WT (rat) [1] (setting [3]) is listed as “binds”.

As for “CATAGTTCACAGAAAAGAGA (double strand) [R61]”, the binding result with Stat5b WT (rat) [1] (setting [3]) is listed as “binds”.

“TCTGCTTCTTAGAATGAAG (double strand) [R35]” came in with an IC50 with Stat5b WT (rat) [1] of 35 nM. In the data set with Stat5b WT (rat) [2], this sequence had a Kd of 17 nM.

As to “CCATGATTCCTAGAAAAGATGT (double strand) [R60]”, the binding result in the data set with Stat5b WT (rat) [1] (setting [3]) is “binds”.

Consider “AAAATATTTCCTGGAACTAAA (double strand) [R3]”, for which the binding result with Stat5b WT (rat) [1] (setting [3]) was “binds”.

As to “CACCAATTCATGGAAATTAAAC (double strand) [R2]”, the binding result with Stat5b WT (rat) [1] (setting [3]) is “binds”.

On to “GAATCCTTGTGTTTCTCTGAAATCCATAGCTAG (double strand) [R54]”, for which, in the data set with Stat5b WT (rat) [1] (setting [3]), the binding result was “binds”.

As for “GGAAATTCGCAGAAGTGAG (double strand) [R59]”, in the data set with Stat5b WT (rat) [1] (setting [3]), the binding result is “binds”.

For “GAAACTGCCTTTTCCGTTGAATCTATCCTTCC (double strand) [R13.5]”, in the data set with Stat5b WT (rat) [1] (vs labeled R34, competed very poorly, IC50 only in figure), the binding result is listed as “binds more weakly”.

With “AAGTTTTTCGAAGAATTGGAA (double strand) [R57]”, the binding result with Stat5b WT (rat) [1] (setting [3]) is given as “binds”.

In the case of “TCCAGTTCTCAGAAAGGAA (double strand) [R58]”, the half-inhibitory concentration (IC50) with Stat5b WT (rat) [1] amounted to 2.2 nM. The sequence also registered a dissociation constant Kd with Stat5b WT (rat) [2] of 1.3 nM.

Turning to “CAAAGAATTTCTTCTTAGAATTTGTCAATTC (double strand) [R4]”, the binding result with Stat5b WT (rat) [1] (setting [3]) is recorded as “binds”.
